Assay results taken from publication PMC10241913.
No constants are given. Whether binding was seen depends on the method and setting.

T1: Atto594-UBXD1-eUBX (containing the linker), 269-441 (human) (UniProt Q9BZV1)
T1 sequence (chain, Atto594 (NHS ester labelling)): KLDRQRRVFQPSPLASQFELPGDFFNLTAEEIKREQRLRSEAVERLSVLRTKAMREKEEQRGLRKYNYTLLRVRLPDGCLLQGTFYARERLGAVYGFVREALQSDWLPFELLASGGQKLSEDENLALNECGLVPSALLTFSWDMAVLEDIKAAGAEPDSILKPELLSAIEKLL

T2: UBXD1-eUBX-C (269–441), for fluorescence anisotropy (human) (UniProt Q9BZV1)
T2 sequence (chain, Atto594 (NHS ester; the UBXD1 proteins were labeled for anisotropy)): T1 sequence (chain, Atto594 (NHS ester labelling))

B1: UBXD1-PUB (150-264) (domain or fragment, UniProt Q9BZV1 150-264)
chain: STDPVAASIMKIYTFNKDQDRVKLGVDTIAKYLDNIHLHPEEEKYRKIKLQNKVFQERINCLEGTHEFFEAIGFQKVLLPAQDQEDPEEFYVLSETTLAQPQSLERHKEQLLAAE
B2: UBXD1-PUB (150–264) (domain or fragment, UniProt Q9BZV1 150-264)
chain: B1 chain

Assays:
[1] = target: T1, Atto594-UBXD1-eUBX (containing the linker), 269-441 (human); test: fluorescence polarisation; fluorescence anisotropy titration of Atto594-UBXD1-eUBX (269-441) with UBXD1-PUB as titrant; n = 3; both purified
[2] = target: T2, UBXD1-eUBX-C (269–441), for fluorescence anisotropy (human); test: fluorescence polarisation; fluorescence anisotropy titration of eUBX-C (269–441) and PUB (150–264); which one was labeled is not told; both purified

Row | Binder | binding [1] | binding [2]
1 | B1 | no binding | 
2 | B2 |  | no binding
